Measurements taken from the supplement of paper PMC6078165.
Values are relative to the signal before dosing, not to a vehicle control; the signal also falls without drug.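 Labels refer to human fibroblasts, largely primary: uterine (C12385, HUF), lung (H6013), bone (Hs27A), adrenal (HADF), skin (WS1), plus mammary HMF and breast cancer-associated Hs343T. Cancer lines are basal-like or mesenchymal-like triple-negative breast cancer. The paper counts as hits responses shifting over 3x the replicate standard deviation. The tissue of the other fibroblasts is not given here.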

System: MDAMB436
Assay: relative JC-1 red fluorescence (viability) vs pre-drug, coculture with fibroblast (fraction); higher = more viable cancer cells
Settings: 1 µM
Experimental: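 JC-1 labelled TNBC cells cocultured 1:1 (1,500 cells each) with CellTrace Violet stained primary or stromal fibroblasts in 384-well plates in FluoroBrite medium, treated with one of 42 anticancer drugs at 0.1, 1, 10 or 100 uM. JC-1 red fluorescence (mitochondrial integrity in cancer cells only) was read by plate reader every 8 h for 72 h. Values are normalised to each well's pre-drug value. The stock of one drug was tenfold lower, so its dose labels may be too high.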

CO[C@@]12[C@H](COC(N)=O)C3=C(C(=O)C(C)=C(N)C3=O)N1C[C@@H]1N[C@@H]12 [Mitomycin C]
relative JC-1 red fluorescence
Settings	8 h	16 h	24 h	32 h	40 h	48 h	56 h	64 h	72 h
coculture fibroblast: C12385	0.705	0.674	0.661	0.5842	0.554	0.543	0.536	0.522	0.521
coculture fibroblast: H6013	0.752	0.717	0.703	0.676	0.664	0.686	0.633	0.617	0.574
coculture fibroblast: H6019	0.721	0.6802	0.666	0.591	0.548	0.521	0.482	0.456	0.427
coculture fibroblast: H6076	0.736	0.678	0.684	0.642	0.626	0.609	0.621	0.638	0.653
coculture fibroblast: H6231	0.743	0.617	0.685	0.603	0.597	0.5719	0.581	0.575	0.56
coculture fibroblast: HADF	0.798	0.756	0.727	0.71	0.696	0.729	0.673	0.675	0.631
coculture fibroblast: HCFa	0.731	0.711	0.675	0.65	0.634	0.662	0.598	0.588	0.539
coculture fibroblast: HCPF	0.747	0.698	0.708	0.657	0.641	0.613	0.602	0.593	0.584
coculture fibroblast: HHSteC	0.7773	0.7626	0.7401	0.7121	0.7262	0.742	0.691	0.683	0.636
coculture fibroblast: HMF	0.785	0.69	0.672	0.624	0.598	0.575	0.573	0.553	0.546
coculture fibroblast: HPFa	0.8577	0.769	0.733	0.69	0.684	0.6939	0.631	0.609	0.551
coculture fibroblast: HUF	0.832	0.741	0.726	0.658	0.614	0.584	0.561	0.55	0.542
coculture fibroblast: Hs5	0.7361	0.68	0.664	0.615	0.614	0.576	0.594	0.582	0.574
coculture fibroblast: Hs27A	0.792	0.711	0.723	0.719	0.721	0.797	0.733	0.739	0.682
coculture fibroblast: Hs343T	0.752	0.661	0.628	0.584	0.555	0.519	0.515	0.509	0.507
coculture fibroblast: WS1	0.7282	0.669	0.646	0.57	0.522	0.503	0.479	0.457	0.444
